Screening data, single-dose tests

Measurements from “University of Dundee, Small-Polar-MMV Screening Library” (2021), ChEMBL document CHEMBL3988442.

Mtb glucose medium: 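Phenotypic screen: M. tuberculosis growth, glucose 7H9 medium, 3 days; the read-out is not stated. Concentration: 50 µM. Direction is inferred from retests: higher values go with more growth inhibition. Size under these conditions: about 69,000 compounds, about 760 of them at 50% or above in at least one test.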
Mtb cholesterol medium: 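Whole-cell growth test on Mycobacterium tuberculosis, read after 4 days in a medium based on cholesterol and the lipid DPPC; the read-out is not stated. Tested at 50 µM. Direction is inferred from retests: higher values go with more growth inhibition. About 69,000 compounds were tested under these conditions; 0.54% (about 370) showed 50% or more at least once.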

Results are given as percent effect. The controls that fix the scale are not given in the record; negative values are as filed. The compounds are a random part of those screened. Two or more numbers in one place are separate tests of the same structure; such repeats can differ widely.

SMILES	Mtb glucose medium	Mtb cholesterol medium
Cc1n[nH]c(C)c1CCC(=O)N[C@@H]1CCC[C@@H](Oc2ccccc2)[C@@H]1O	-0.1372%	-0.6812%
CC1(C)CC(N2Cc3nc(N4CCCC4)ncc3C2=O)CC(C)(C)N1	42.44%	12.44%
Clc1ccc(COCC2CCN(Cc3ccccn3)CC2)cc1.O=C(O)C(=O)O	49.03%	64.36%
Cc1cc(NC(=O)CN2CCC(N(C)Cc3ncc(C)o3)C2)n(C)n1 (configuration not stated)	-30.02%	-23.17%
CC1(C(=O)N2CCN(C3CCCC3)CC2)CNCCO1 (configuration not stated)	-17.01%	-1.344%
O=C(c1ccc(N2CCCC2)nn1)N1CCCc2ccc(F)cc21	-13.7% & -3.5%	-13.32%
c1nc(N2CCCC2)ncc1CN1CCCC(CN2CCCCC2)C1 (configuration not stated)	-22%	-4.995%
Cc1[nH]ncc1CCCNC(=O)N1CCC(CC(N)=O)CC1	-10.15%	-9.535%
CC(=O)N1Cc2ccccc2CC2(CCCCN2C)C1 (configuration not stated)	-2.454%	-26.32%
COCc1ncn2c1CN(S(=O)(=O)c1ccc(C)cc1)CC2	-3.171% & -2.811%	-10.8%
CCN(C(=O)Cc1ccc(NC(=O)NC2CC2)cc1)c1ccccc1	9.817%	9.555%
CC(C)Cn1ncc2cc(C(=O)N(C)CCc3ccccc3)cnc21	22.01%	0.3571%
CC(C)CCc1noc(CN2CCCC(CNS(N)(=O)=O)C2)n1 (configuration not stated)	13.28% & -6.859%	2.886%
COC(=O)c1ccc(N2CCN(C(=O)c3cnccn3)C(C)C2)cc1 (configuration not stated)	5.218% & -48.77%	0.513%
Cc1nc(C)c(CN2CCOC(Cc3ccccc3Cl)C2)nc1C (configuration not stated)	-1.687% & 6.93%	10.02%
CC(=O)N1CC2(CCN(Cc3ccc(Cl)cc3)C2)Cc2ccccc21 (configuration not stated)	-1.278%	-15.65%
CCn1cc(NC(=O)c2cccc(OCC(F)(F)F)n2)cn1	14.39%	0.685%
CC(C)(C)n1ncc2c1NC(=O)CSC2c1ccsc1 (configuration not stated)	2.743%	19.81%
CCS(=O)(=O)N1CCC2(CC1)CN(Cc1ccccn1)C(=O)CO2.O=C(O)C(F)(F)F	-5.542%	-7.199%
COc1cc(Cl)ccc1C(=O)NCC(=O)Nc1nccs1	-3.166% & -8.828%	-16.54%
CC(=O)N(C)CC(=O)NC1(c2ccc(F)cc2)CCCC1	-2.694% & -5.056%	-17.19%
O=C(O)C(F)(F)F.O=C(c1ccccc1F)N1CCC2(CC1)CC(N1CCCC1)CO2 (configuration not stated)	-18.46%	-6.307%
COc1ncccc1CN1CCC2(CC1)CN(c1ccccn1)CCO2.O=C(O)C(F)(F)F.O=C(O)C(F)(F)F.O=C(O)C(F)(F)F	-2.399% & 3.857%	-10.43%
Cc1nc(CN2CCN(C(=O)NC(C)Cn3ccnc3)CC2)cs1 (configuration not stated)	-5.191%	-23.31%
CN(CCCNC(=O)N1CCCC1c1ccsc1)c1ccccn1 (configuration not stated)	8.002%	-7.874%
CNC(=O)[C@@H](c1ccccc1OC)N1CCC[C@H]1C(=O)N1CC[C@@H](O)C1.Cl	-5.471% & -7.348%	-0.8952%
CNS(=O)(=O)c1cccc(CNc2ccc(C(F)(F)F)nn2)c1	3.734%	9.953%
Cc1ccc(C)c(S(=O)(=O)CCN2CCc3c(ncn3C)C2)c1	-5.715%	7.741%
O=C(NCCNc1cc(N2CCCC2)cnn1)Nc1ccccc1F	-0.4788%	-1.637%
COc1cccc2ccc(N3CCC(O)(c4ccc(C)cn4)CC3)nc12	13.52%	-11.83%
O=C(CO)N1CCC2(CC1)CC(=O)N(Cc1cc(F)cc(F)c1)C2	-6.044%	6.911%
O=C(O)C(F)(F)F.[H][C@]12CCC[C@@]1(COCC(=O)N(C)C)CN(C1CCC1)C2	3.889% & -1.719%	18.95%
COc1cccc2ccc(CN3CCN(c4ccncc4)CC3)nc12	26.29%	-6.54%
O=S(=O)(CCN1CCCCC1Cn1cccn1)c1ccccc1 (configuration not stated)	18.06%	-2.518%
CC(NC1(CNS(=O)(=O)N(C)C)CCCC1)c1ccccc1 (configuration not stated)	-2.203% & -4.728%	7.559%
CSc1ccc(C2CC(=O)Nc3c2c(=O)[nH]c2ncnn32)cc1 (configuration not stated)	-19.27%	0.2559%
O=C(Nc1nnc(C2CC2)s1)NC1CCN(Cc2ccccc2)C1 (configuration not stated)	4.318%	-7.63%
Cc1ccoc1-c1nnc(CN2CCn3c(nnc3C3CC3)C2)o1	-9.097%	-22.71%
CCOc1ccc(CC(CNC(=O)c2ccoc2C)C(N)=O)cc1 (configuration not stated)	-2.885%	11.92%
Cc1ccc(NC(=O)N2CCC(CO)(Nc3ccccc3)CC2)cc1	3.944% & -22.94%	-36.55%
COC(=O)c1ccc(N2CCN(C(=O)C3CC3)C(C)C2)cc1 (configuration not stated)	9.54%	-0.4451%
O=S(=O)(Cc1ccccc1)c1nnc(N2CCCC2)s1	32.85% & 21.34%	-1.849%
Cc1noc(C)c1C(=O)NCc1ccnc(OCC(F)(F)F)c1	7.248%	2.037%
COc1ccc(OCC2CCCN(Cc3ccncc3)C2)cc1 (configuration not stated)	20.82%	6.209%
CCN1CC2(CC1=O)CN(C(C)=O)CCN(C(=O)NC(C)C)C2 (configuration not stated)	18.01%	1.656%
CC(=O)NCC(=O)N(CCN1CCOCC1)Cc1ccco1	15.03%	-7.524% & 5.145%
CS(=O)(=O)c1ccc(-c2ccccc2C(=O)O)cc1	-9.483%	-14.63%
O=C(O)C(F)(F)F.O=C(O)C(F)(F)F.[H][C@@]12C[C@H](C(=O)NCC3CC3)N(C)[C@]1([H])CN(Cc1ccc(C)o1)C2	-39.17%	6.206% & -15.39%
Cc1nn(C)c(N2CCCN(C)CC2)c1CNC(=O)C(C)(C)C	-8.655%	23.32%
O=C(O)C(F)(F)F.[H][C@@]12COC[C@@H](C(=O)N3CCCCO3)[C@]1([H])CN(Cc1c(C)noc1C)C2	-28.71%	5.23% & -13.17%
CN(CC(=O)NCc1cccnc1N1CCCCC1)C(=O)c1cccs1	4.201%	4.807%
N#Cc1ccnc(N2CCN(CC(O)c3ccc(F)c(F)c3)CC2)c1 (configuration not stated)	15.87%	7.236%
CC(C)CCNC(=O)c1sccc1N(C)S(=O)(=O)c1ccccc1	-64.52% & -10.52%	-11.76%
COc1cccc(CCC(=O)N2CCCC(c3nncn3C)C2)c1 (configuration not stated)	11.87%	-30.85%
CCN1CCC2(CC1)NC(=O)c1cc(Br)ccc1-n1nnnc12	-24.47%	9.914%
COCCN1CCOCC2(CCN(c3cnccn3)CC2)C1.O=C(O)C(F)(F)F	-32.55%	-18.56%
CC(C)c1cc(NCC(C)N2CCCC2)n2nccc2n1 (configuration not stated)	12.99%	4.5%
Cc1ccccc1CN1CCC2(CC1)CN(S(=O)(=O)c1ccccc1)C2.O=C(O)C(F)(F)F	7.156%	15.47%

Some entries from above, unchanged:

SMILES,Mtb glucose medium,Mtb cholesterol medium
O=C(NCCNc1cc(N2CCCC2)cnn1)Nc1ccccc1F,-0.4788%,-1.637%
CCN1CCC2(CC1)NC(=O)c1cc(Br)ccc1-n1nnnc12,-24.47%,9.914%
CC(=O)NCC(=O)N(CCN1CCOCC1)Cc1ccco1,15.03%,-7.524% & 5.145%
N#Cc1ccnc(N2CCN(CC(O)c3ccc(F)c(F)c3)CC2)c1 (configuration not stated),15.87%,7.236%
Cc1noc(C)c1C(=O)NCc1ccnc(OCC(F)(F)F)c1,7.248%,2.037%